According to the supplement of paper PMC10849652:
Some of the results follow.

Sequences of proteins named here, by UniProt entry; tags and fusion partners are left off. A change or cut given only in a name is not applied to a line headed by its entry.
UniProt Q9BYC5: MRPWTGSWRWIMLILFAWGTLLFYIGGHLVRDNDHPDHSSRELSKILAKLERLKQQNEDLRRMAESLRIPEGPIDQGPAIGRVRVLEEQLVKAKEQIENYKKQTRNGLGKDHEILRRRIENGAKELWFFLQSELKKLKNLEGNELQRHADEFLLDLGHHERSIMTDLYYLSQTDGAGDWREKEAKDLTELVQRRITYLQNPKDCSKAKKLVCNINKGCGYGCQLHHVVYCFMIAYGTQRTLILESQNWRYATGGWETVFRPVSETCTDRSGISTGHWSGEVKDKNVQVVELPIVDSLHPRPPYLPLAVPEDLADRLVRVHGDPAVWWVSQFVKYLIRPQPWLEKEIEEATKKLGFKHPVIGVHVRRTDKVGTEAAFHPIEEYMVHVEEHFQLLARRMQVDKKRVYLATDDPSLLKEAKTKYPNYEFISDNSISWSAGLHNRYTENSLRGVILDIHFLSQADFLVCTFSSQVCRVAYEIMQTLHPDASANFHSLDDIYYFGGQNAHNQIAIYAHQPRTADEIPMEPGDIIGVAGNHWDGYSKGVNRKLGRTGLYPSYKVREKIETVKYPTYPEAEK
UniProt Q14393: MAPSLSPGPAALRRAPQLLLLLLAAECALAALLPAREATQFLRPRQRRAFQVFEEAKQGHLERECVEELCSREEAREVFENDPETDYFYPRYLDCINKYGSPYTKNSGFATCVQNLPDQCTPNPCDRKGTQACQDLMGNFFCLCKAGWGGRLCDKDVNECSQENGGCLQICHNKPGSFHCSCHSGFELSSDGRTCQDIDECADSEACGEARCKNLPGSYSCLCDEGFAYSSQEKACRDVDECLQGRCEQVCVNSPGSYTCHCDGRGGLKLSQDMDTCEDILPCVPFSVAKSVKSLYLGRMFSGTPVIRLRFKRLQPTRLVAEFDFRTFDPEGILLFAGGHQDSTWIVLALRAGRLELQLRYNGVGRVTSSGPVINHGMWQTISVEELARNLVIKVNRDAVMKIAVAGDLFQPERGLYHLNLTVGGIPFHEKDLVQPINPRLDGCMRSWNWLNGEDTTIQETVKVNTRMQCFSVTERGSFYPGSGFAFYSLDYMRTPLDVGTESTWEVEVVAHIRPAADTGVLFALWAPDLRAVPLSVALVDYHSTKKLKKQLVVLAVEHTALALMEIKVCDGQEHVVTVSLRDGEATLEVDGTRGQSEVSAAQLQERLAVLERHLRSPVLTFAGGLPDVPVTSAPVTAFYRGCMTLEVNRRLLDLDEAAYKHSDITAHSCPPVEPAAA
UniProt Q9H334: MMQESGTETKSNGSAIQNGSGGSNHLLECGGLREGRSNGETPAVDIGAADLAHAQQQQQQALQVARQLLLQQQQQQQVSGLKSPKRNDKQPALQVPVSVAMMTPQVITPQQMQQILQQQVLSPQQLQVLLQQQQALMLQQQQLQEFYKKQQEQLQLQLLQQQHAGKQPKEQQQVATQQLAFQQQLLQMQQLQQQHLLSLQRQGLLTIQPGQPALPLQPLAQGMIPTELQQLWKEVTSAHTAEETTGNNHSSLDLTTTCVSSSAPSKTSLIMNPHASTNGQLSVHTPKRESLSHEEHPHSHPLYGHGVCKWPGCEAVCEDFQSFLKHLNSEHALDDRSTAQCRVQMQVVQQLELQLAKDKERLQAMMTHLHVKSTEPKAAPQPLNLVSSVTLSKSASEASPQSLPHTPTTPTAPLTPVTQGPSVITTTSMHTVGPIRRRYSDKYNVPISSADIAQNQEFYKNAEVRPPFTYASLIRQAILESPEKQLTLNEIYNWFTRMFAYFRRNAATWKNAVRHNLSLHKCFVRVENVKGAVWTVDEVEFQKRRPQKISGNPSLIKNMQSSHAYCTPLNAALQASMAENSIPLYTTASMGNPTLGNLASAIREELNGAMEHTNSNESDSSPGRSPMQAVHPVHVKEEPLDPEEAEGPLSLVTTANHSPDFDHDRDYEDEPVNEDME
UniProt Q8IVP5: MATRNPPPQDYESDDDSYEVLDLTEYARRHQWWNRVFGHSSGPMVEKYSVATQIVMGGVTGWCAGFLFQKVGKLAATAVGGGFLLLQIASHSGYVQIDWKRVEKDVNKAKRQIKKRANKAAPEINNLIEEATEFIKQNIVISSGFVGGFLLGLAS
UniProt Q8NCW6: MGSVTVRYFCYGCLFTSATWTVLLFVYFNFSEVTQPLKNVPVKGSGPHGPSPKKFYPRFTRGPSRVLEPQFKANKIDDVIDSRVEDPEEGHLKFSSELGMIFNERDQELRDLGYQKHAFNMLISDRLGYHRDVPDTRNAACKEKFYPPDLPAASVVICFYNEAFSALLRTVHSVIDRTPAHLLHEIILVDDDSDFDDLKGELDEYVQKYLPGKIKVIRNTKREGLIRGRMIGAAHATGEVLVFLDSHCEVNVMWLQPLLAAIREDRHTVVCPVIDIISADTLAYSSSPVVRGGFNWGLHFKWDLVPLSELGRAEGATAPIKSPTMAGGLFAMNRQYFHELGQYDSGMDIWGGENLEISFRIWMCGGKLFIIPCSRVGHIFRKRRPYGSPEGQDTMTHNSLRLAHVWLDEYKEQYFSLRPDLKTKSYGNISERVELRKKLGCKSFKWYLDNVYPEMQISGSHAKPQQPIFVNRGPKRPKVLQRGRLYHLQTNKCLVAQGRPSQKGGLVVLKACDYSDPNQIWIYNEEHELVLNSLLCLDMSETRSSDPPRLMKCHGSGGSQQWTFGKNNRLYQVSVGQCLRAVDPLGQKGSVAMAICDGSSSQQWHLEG
UniProt Q8NCL4: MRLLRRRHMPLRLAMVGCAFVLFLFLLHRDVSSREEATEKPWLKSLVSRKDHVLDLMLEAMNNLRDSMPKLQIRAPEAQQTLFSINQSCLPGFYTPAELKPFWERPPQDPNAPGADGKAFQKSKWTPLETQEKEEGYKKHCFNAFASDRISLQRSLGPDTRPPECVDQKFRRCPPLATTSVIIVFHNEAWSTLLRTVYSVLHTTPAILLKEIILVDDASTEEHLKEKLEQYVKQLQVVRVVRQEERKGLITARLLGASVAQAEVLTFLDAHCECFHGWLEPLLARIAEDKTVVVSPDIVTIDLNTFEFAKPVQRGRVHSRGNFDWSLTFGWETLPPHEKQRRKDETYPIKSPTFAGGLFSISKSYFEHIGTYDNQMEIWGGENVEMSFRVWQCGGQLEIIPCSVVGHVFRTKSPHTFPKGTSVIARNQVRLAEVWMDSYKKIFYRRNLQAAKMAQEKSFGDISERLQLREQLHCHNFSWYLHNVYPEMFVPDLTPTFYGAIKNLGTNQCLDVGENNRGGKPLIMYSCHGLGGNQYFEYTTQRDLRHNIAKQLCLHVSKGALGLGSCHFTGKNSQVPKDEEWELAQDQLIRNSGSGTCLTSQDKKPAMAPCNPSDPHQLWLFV
UniProt Q3B7J2: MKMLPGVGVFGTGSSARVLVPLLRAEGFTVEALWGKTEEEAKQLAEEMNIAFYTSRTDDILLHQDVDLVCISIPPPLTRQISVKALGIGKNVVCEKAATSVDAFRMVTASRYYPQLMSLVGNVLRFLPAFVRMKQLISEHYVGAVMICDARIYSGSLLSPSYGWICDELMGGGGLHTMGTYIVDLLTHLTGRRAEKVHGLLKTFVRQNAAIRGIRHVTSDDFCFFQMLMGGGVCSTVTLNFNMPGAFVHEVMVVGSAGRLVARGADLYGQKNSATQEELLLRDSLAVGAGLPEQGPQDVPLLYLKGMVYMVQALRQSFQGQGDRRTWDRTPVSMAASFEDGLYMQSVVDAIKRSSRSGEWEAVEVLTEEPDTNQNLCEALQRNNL

Assays:
Assay in all cases: log2 fold change, soluble protein after heating vs DMSO (PISA); higher = thermal stabilisation; K562 lysate, 10 uM; active = over 0.2 and 3.5 SD of the protein, either way, in both replicates (recomputed)
erlotinib = compound: C#Cc1cccc(Nc2ncnc3cc(OCCOC)c(OCCOC)cc23)c1 [erlotinib]
How it was run: (§1)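 Soluble protein was defined as the supernatant remaining after 21,000xg for 90 min, following pooling of heated aliquots and adjustment to 0.5% NP-40 at 4°C. Before that, crude K562 extract at 1 mg/mL protein in PBS pH 7.4 with 1 mM MgCl2 was treated with 10 μM compound for 30 min and heated for 3 min across 48°C-58°C. Quantification used TMTpro 16plex LC-MS/MS with channel sums equalised, and values are log-two fold changes in thermal stability relative to solvent controls from duplicates.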

[1] = compound: C/C(=N\NC(=O)C1=CC(=CC=C1)S(=O)(=O)N2CCOCC2)/C3=C(C=CC(=C3)Cl)O
How it was run: as §1

[2] = compound: C1=CC(=CC=C1C2=NC3=C(N2)C=C(C=C3)C(=O)N)OC4=CC=C(C=C4)Cl
How it was run: as §1

[3] = compound: C1=CC2=C(C=CC(=C2)/C=C\3/C(=O)NC(=NCC4=CC=CS4)S3)N=C1
How it was run: as §1

[4] = compound: C1=CC=C2C(=C1)C3=NNC4=CC=CC(=C43)C2=O
How it was run: as §1

[5] = compound: C1CCN(C1)C(=O)NC2=CC=CC(=C2)NC3=NC=C(C(=N3)NCCC4=CN=CN4)Br
How it was run: as §1

[6] = compound: C1CN(CCC1(CC2=CC=C(C=C2)Cl)N)C3=NC=NC4=C3C=CN4
How it was run: as §1

[7] = compound: CC(C)C1=C2N=C(C=C(N2N=C1)NCC3=CC=CC=C3)NCCCCCCN
How it was run: as §1

[8] = compound: CC1=C(C(CC(=O)N1)C2=CC=C(C=C2)C(F)(F)F)C(=O)NC3=C(C=C4C(=C3)C=NN4)F
How it was run: as §1

[9] = compound: C1=CC2=NC=CN=C2C=C1/C=C/3\C(=O)NC(=O)S3
How it was run: as §1

[10] = compound: C1=CC=C(C=C1)C2=NC(=C(N2)C3=CC=NC=C3)C4=CC(=C(C=C4)Cl)O
How it was run: as §1

IRAK-1-4 Inhibitor I = compound: C1COCCN1CCN2C3=CC=CC=C3N=C2NC(=O)C4=CC(=CC=C4)[N+](=O)[O-] [IRAK-1-4 Inhibitor I]
How it was run: as §1

ibrutinib = compound: C=CC(=O)N1CCC[C@@H](n2nc(-c3ccc(Oc4ccccc4)cc3)c3c(N)ncnc32)C1 [ibrutinib]
How it was run: as §1

[11] = compound: CC(=O)c1cnc2ccc(-c3cc(Cl)c(O)c(Cl)c3)nc2c1N[C@H]1CC[C@H](CN(C)C)CC1
How it was run: as §1

ralimetinib = compound: CC(C)(C)Cn1c(N)nc2ccc(-c3[nH]c(C(C)(C)C)nc3-c3ccc(F)cc3)nc21 [ralimetinib]
How it was run: as §1

[12] = compound: CC(C)(O)CC(=O)NCCn1ccc2ncnc(Nc3ccc(Oc4cccc(C(F)(F)F)c4)c(Cl)c3)c21
How it was run: as §1

[13] = compound: CC1=C(C=C(C=C1)NC(=O)C2=CC(=CC=C2)N(C)C)NC(=O)C3=CC=C(C=C3)O
How it was run: as §1

[14] = compound: CC1=CC=C(C=C1)SC2=C3C=C(SC3=CN=C2)C(=O)N
How it was run: as §1

[15] = compound: CC1=C(C=C(C=C1)NC(=O)C2=CC(=CC=C2)C(C)(C)C#N)NC3=CC4=C(C=C3)N=CN(C4=O)C
How it was run: as §1

[16] = compound: CC1=C(C2=C(C=C1)C(=O)C3=CC=CC=C3N2CCCN)C
How it was run: as §1

Measured: log2 fold change

GALNT7 (UniProt H0YAH3)
inactive: erlotinib 0.434 | [1] 0.056 | [2] -0.091 | [3] -0.053 | [4] 0.023 | [5] 0.138 | [6] 0.008 | [7] 0.159 | [8] -0.038

FUT8 (UniProt Q9BYC5)
inactive: erlotinib 0.035 | [2] -0.058 | [9] -0.023 | [10] -0.057 | [5] 0.081 | [6] -0.013 | IRAK-1-4 Inhibitor I 0.073 | ibrutinib -0.075 | [11] 0.042 | ralimetinib -0.141 | [12] -0.259 | [7] -0.075 | [13] 0.111 | [14] 0.022

GAS6 isoform 1 (UniProt Q14393)
inactive: erlotinib 0.095 | [2] -0.03 | [9] 0.059 | [5] 0.096 | [6] -0.163 | ibrutinib 0.047 | [11] -0.086 | [7] -0.175 | [15] 0.066 | [14] 0.012

FOXP1 (UniProt Q9H334)
inactive: erlotinib 0.053 | [1] -0.003 | [2] 0.025 | [3] 0.041 | [9] -0.023 | [10] 0.017 | [4] -0.124 | [5] 0.102 | [6] 0.062 | IRAK-1-4 Inhibitor I 0.005 | ibrutinib -0.065 | ralimetinib 0.079 | [12] -0.068 | [7] -0.001 | [8] 0.128 | [16] 0.028 | [15] -0.012 | [13] 0.015

Quoted from the results shown (two entries):
GALNT7 (UniProt H0YAH3)
inactive: erlotinib 0.434 | [1] 0.056 | [2] -0.091 | [3] -0.053 | [4] 0.023 | [5] 0.138 | [6] 0.008 | [7] 0.159 | [8] -0.038

FUT8 (UniProt Q9BYC5)
inactive: erlotinib 0.035 | [2] -0.058 | [9] -0.023 | [10] -0.057 | [5] 0.081 | [6] -0.013 | IRAK-1-4 Inhibitor I 0.073 | ibrutinib -0.075 | [11] 0.042 | ralimetinib -0.141 | [12] -0.259 | [7] -0.075 | [13] 0.111 | [14] 0.022

Continued.

FUNDC1 (UniProt Q8IVP5)
inactive: erlotinib 0.033 | [1] 0.067 | [2] -0.187 | [3] 0.16 | [10] 0.035 | [4] 0.113 | [5] -0.042 | [6] 0.066 | IRAK-1-4 Inhibitor I -0.075 | [11] 0.005 | ralimetinib 0.013 | [12] -0.074 | [7] 0.069 | [8] 0.105 | [16] 0.047 | [15] -0.021 | [13] 0.083 | [14] 0.005

GDI2 (UniProt Q5SX86)
inactive: erlotinib 0.123 | [1] 0.118 | [2] 0.007 | [3] 0.077 | [9] -0.087 | [10] 0.217 | [4] 0.147 | IRAK-1-4 Inhibitor I 0.098 | ibrutinib 0.158 | [11] -0.057 | ralimetinib 0.162 | [12] 0.089 | [7] -0.218 | [8] 0.259 | [16] -0.23 | [13] -0.031 | [14] -0.049

GALNT11 (UniProt Q8NCW6)
inactive: erlotinib -0.005 | [1] 0.089 | [2] -0.026 | [3] -0.087 | [10] -0.052 | [4] 0.053 | [5] 0.009 | [6] -0.057 | IRAK-1-4 Inhibitor I 0.072 | [11] 0.076 | ralimetinib -0.008 | [12] -0.101 | [7] 0.027 | [8] -0.036 | [16] -0.029 | [15] 0.072 | [13] -0.014 | [14] -0.072

GALNT6 (UniProt Q8NCL4)
inactive: erlotinib 0.063 | [1] 0.021 | [2] -0.054 | [3] 0.014 | [9] -0.119 | [4] -0.015 | [5] -0.038 | [6] -0.025 | ibrutinib 0.091 | [11] -0.04 | [7] -0.083 | [8] 0.035 | [16] 0.004 | [15] 0.042 | [14] -0.087

GFOD2 (UniProt Q3B7J2)
inactive: erlotinib 0.022 | [1] -0.114 | [2] 0.203 | [3] -0.368 | [9] -0.051 | [10] 0.144 | [4] -0.095 | [5] -0.002 | [6] 0.108 | IRAK-1-4 Inhibitor I -0.069 | ibrutinib 0.045 | [11] -0.206 | ralimetinib -0.091 | [12] -0.01 | [7] 0 | [16] -0.079 | [13] 0.054 | [14] -0.076

GAA (UniProt P10253)
inactive: erlotinib 0.077 | [1] 0.046 | [2] 0.054 | [3] -0.041 | [9] -0.005 | [10] 0.006 | [4] -0.208 | [5] 0.007 | [6] 0.092 | IRAK-1-4 Inhibitor I 0.025 | ibrutinib 0.013 | [11] -0.011 | ralimetinib 0.054 | [12] -0.133 | [7] 0.009 | [8] 0.142 | [15] 0.028 | [13] 0.036 | [14] -0.084
